# Source: US20250205252A1, “7-KETOLITHOCHOLIC ACID FOR USE IN THE TREATMENT OF GUT DYSBIOSIS AND AS A PREBIOTIC” (NZP UK Limited, priority 2022, published 2025)
# At least one compound was matched to its structure with a doubt left.
# Tested on: Clostridium histolyticum (Chis150)
# Test: 3-stage gut model, flow-FISH enumeration, Clostridium histolyticum
# Assay type: cell-based
# Conditions: FIG. 6
smiles,measurement,value
"C[C@H](CCC(=O)O)[C@H]1CC[C@H]2[C@@H]3[C@@H](O)C[C@@H]4C[C@H](O)CC[C@]4(C)[C@H]3CC[C@]12C [UDCA, ursodeoxycholic acid, reference compound]",increases in pathogenic Clostridium histolyticum,no statistically significant increases
